Test results: article PMC12130725
No constants are given. Whether binding was seen depends on the method and setting. In cells and extracts the contact can be indirect. Some binding calls cover weakened binding; strength is not graded here.

Amino acid sequences for entries named in this document (tags omitted). Residues count along the entry.
UniProt Q15118, residues 29-436: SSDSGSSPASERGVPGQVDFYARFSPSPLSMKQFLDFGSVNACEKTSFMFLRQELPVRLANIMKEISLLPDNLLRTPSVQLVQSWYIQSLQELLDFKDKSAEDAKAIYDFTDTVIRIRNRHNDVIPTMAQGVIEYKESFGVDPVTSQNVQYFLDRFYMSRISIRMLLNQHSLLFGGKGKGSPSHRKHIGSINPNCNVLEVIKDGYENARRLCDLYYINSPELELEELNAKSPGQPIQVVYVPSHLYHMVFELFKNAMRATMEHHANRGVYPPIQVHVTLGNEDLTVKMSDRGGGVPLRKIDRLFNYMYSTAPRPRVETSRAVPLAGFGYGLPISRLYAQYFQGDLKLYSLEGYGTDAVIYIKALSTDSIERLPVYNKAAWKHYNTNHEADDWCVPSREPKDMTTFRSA

Biological target: Pyruvate dehydrogenase kinase 1 (human (endogenous in Skov3 and Caov3)) (UniProt Q15118)
Test: co-IP; lysates from Skov3 or Caov3 cells incubated with the targeted antibodies (or goat-anti-rabbit IgG as a control) and A/G agarose beads at 4°C for 6 h; washed; western blot

B1: Biglycan (protein, UniProt P21810 38-368)
chain: DEEASGADTSGVLDPDSVTPTYSAMCPFGCHCHLRVVQCSDLGLKSVPKEISPDTTLLDLQNNDISELRKDDFKGLQHLYALVLVNNKISKIHEKAFSPLRKLQKLYISKNHLVEIPPNLPSSLVELRIHDNRIRKVPKGVFSGLRNMNCIEMGGNPLENSGFEPGAFDGLKLNYLRISEAKLTGIPKDLPETLNELHLDHNKIQAIELEDLLRYSKLYRLGLGHNQIRMIENGSLSFLPTLRELHLDNNKLARVPSGLPDLKLLQVVYLHSNNITKVGVNDFCPMGFGVKRAYYNGISLFNNPVPYWEVQPATFRCVTDRLAIQFGNYKK
Question: Which binding does the source give for B1 here?
Answer: Its binding is “binds”.
